Reference: patent publication US20260209270A1, “Synthetic Peptide And Construct” (TOAGOSEI CO., LTD., priority 2022, published 2026)
Some entries share one result that the patent states for a list of compounds.

System: NSC-34 cells
Test: Evaluation of cell membrane permeability by flow cytometry (MFI of FAM fluorescence)
Type: cell-based, mouse
Conditions: Test 1; 20 μM
Experimental: As a culture medium of the NSC-34 cell, 10% fetal bovine serum (FBS)-containing Dulbecco's modified Eagle's medium (DMEM (Cat No. 044-29765, manufactured by FUJIFILM Wako Pure Chemical Corporation)) was used. The samples 1 to 6 were each dissolved in dimethyl sulfoxide (DMSO) to prepare sample solutions 1 to 6 with a sample concentration of 4 mM. Then, the sample solutions were diluted in the culture medium to prepare 40 μM sample solutions 1 to 6.
The NSC-34 cell was suspended in the culture medium to prepare a cell suspension of 2×10^5 cells/mL. […]
Regarding the obtained cells (cell pellet), the cell membrane permeability of the sample 1 was analyzed using a flow cytometer. […]
Using the aforementioned flow cytometer, gating based on forward scatter (FSC) and side scatter (SSC) was performed to set a gate about a cell group to be analyzed, and the fluorescence intensity was measured about the cell group in this gate. […] The fluorescence intensity was measured using a fluorescence detector FL2 of the flow cytometer (optimum detection wavelength around 543 nm) capable of detecting the fluorescence wavelength of FAM. Regarding this measurement result, the analysis was performed using commercially available analysis software “FlowJo” (manufactured by TreeStar) to obtain mean fluorescence intensity (MFI) of the cell group to be measured. […]

## Ac-PDPD-FAM [Example 1]
  value of MFI compared with Reference Example 1 (FAM alone): higher
